Test results taken from PubChem BioAssay AID1487 (National Center for Advancing Translational Sciences (NCATS), 2009).
The list shows a part of the results. These are further read-outs of the screen, such as a control signal, another cell line or another target. No call is given for them. The list favours compounds with an active or inconclusive main result. Words in brackets tell the shape of the fitted curve; partial curves, single points and poor fits give uncertain potencies.

Experiment: qHTS Assay for Modulators of Lamin A Splicing
Conditions: HeLa LMNA splicing GFP/RFP minigene ratio, 48 h
Procedure, shortened: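 S3 HeLa cells stably expressing lamin A-EGFP splicing minigene plus DsRed2, 600 cells/well, 48 h compound exposure at 37C. Laser-scanning cytometry; analysed as GFP (500-530 nm)/RFP (575-640 nm) total intensity ratio; 0.5% DMSO vehicle.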

[1] = measured here: GFP splicing reporter channel
[2] = measured here: RFP viability control channel

SMILES | AC50 [1] | AC50 [2]
CC1=C/C(=N\OS(=O)(=O)c2ccccc2)C(C)=CC1=O | 35.5 µM [falling, single point] | 35.5 µM [falling, single point]
CN1CCN(C(=S)Nc2ccc(Cl)c(Cl)c2)CC1 | – | 17.8 µM [rising, partial curve]
Cc1ccc(C)c(OCC(=O)Nc2c[nH]c(=O)[nH]c2=O)c1 | 0.0562 µM [falling, full curve] | 0.562 µM [falling, full curve]
CN1CCCN(c2ccc([N+](=O)[O-])cc2)CC1 | – | 5.62 µM [falling, full curve, poor fit]
Cc1ccc(NC(=O)Cn2nc(C)c3nn(-c4ccc(Cl)cc4)c(C)c3c2=O)cc1C | 0.562 µM [rising, partial curve, poor fit] | 0.891 µM [rising, full curve, poor fit]
S=C(NCCc1ccccc1)N1CCn2cccc2C1c1ccncc1 (configuration not stated) | 8.91 µM [falling, partial curve, poor fit] | –
O=C(NCc1ccco1)c1cc2n(n1)C(C(F)(F)F)CC(c1ccc(Cl)c(Cl)c1)N2 (configuration not stated) | 20 µM [rising, partial curve, poor fit] | 12.6 µM [rising, partial curve]
Cc1ccc(CNC(=O)C(=O)NCC2OCCN2S(=O)(=O)c2ccc3c(c2)OCCO3)cc1 (configuration not stated) | 17.8 µM [rising, single point] | 22.4 µM [rising, single point]
CC(=O)OCC(=O)[C@@]12OC3(CCCC3)OC1CC1C3CCC4=CC(=O)C=C[C@@]4(C)[C@]3(F)C(O)C[C@]12C (some centres not stated) | 0.562 µM [falling, partial curve] | 0.631 µM [falling, partial curve, poor fit]
COc1ccc(CC(=O)Nc2cccc(C(=O)Nc3cccc(C)c3)c2)cc1 | 12.6 µM [falling, partial curve] | –
COc1ccc(C(=O)OCn2nnc3ccccc3c2=O)cc1 | 0.01 µM [rising, full curve, poor fit] | –
Cc1ccccc1CNC(=O)c1ccc(Cl)c([N+](=O)[O-])c1 | 31.6 µM [rising, single point] | –
CCCC(=O)OCC(=O)NCc1ccc(Cl)cc1 | 0.00316 µM [falling, full curve, poor fit] | –
COc1ccc(-c2noc(C3CCCN(C(=O)c4cccs4)C3)n2)cc1 (configuration not stated) | – | 12.6 µM [rising, single point]
CN(c1ccccc1)S(=O)(=O)c1ccc(Cl)c(C(=O)Nc2nc3ccccc3[nH]2)c1 | – | 12.6 µM [rising, partial curve]
Cc1nc2ccccc2n1CCc1nc2c3ccccc3nc(SCc3cccc(F)c3)n2n1 | 0.794 µM [rising, full curve] | 1.12 µM [rising, full curve, poor fit]
CCOc1ccc(N(CC(=O)Nc2cccc(N(C)S(C)(=O)=O)c2)S(=O)(=O)c2ccccc2)cc1 | – | 12.6 µM [rising, partial curve, poor fit]
COc1ccccc1CNC(=O)CCCOc1cc(=O)n(C)c2ccccc12 | – | 35.5 µM [rising, single point]
CCNc1ncc2nc(-c3ccc(Cl)cc3)c(=O)n(Cc3ccc(F)cc3)c2n1 | 22.4 µM [falling, single point] | 22.4 µM [falling, single point]
COc1ccc(-n2c(C)cc(C(=O)CSc3ccc(NC(C)=O)cc3)c2C)cc1 | 20 µM [rising, single point] | 25.1 µM [rising, single point]
CC(O)COc1ccccc1 (configuration not stated) | 35.5 µM [falling, single point] | 0.316 µM [falling, partial curve]
c1ccc(-c2ccc(-c3cnc4n3CCCCC4)cc2)cc1 | – | 8.91 µM [rising, partial curve]
COc1ccc(Br)cc1CNC(=O)c1cc(=O)[nH]c2ccc(S(=O)(=O)N3CCCC3)cc12 | 3.55 µM [rising, partial curve, poor fit] | 3.16 µM [rising, partial curve]
CCCCCCn1c(COc2ccccc2F)nnc1SCC(=O)N1c2ccccc2NC(=O)C1(C)C | 35.5 µM [rising, single point] | 35.5 µM [rising, single point]
COCCCNC(=S)Nc1ccc(CC(=O)O)cc1 | 5.01 µM [falling, partial curve] | 5.62 µM [falling, partial curve, poor fit]
Cc1csc(NC(=O)CSc2nnc3c4ccccc4nc(C(C)(C)C)n23)n1 | 14.1 µM [falling, single point] | 10 µM [falling, single point]
COCCNc1ncnc2ccc(-c3cccc(OC)c3)cc12 | 20 µM [falling, single point] | –
O=C(C1CC(=O)N(c2ccc3c(c2)OCCO3)C1)N1CCN(c2ccccc2)CC1 (configuration not stated) | 0.0178 µM [rising, full curve, poor fit] | –

SMILES | AC50 [1] | AC50 [2]
COc1cccc(/C=C/C(=O)c2cccc([N+](=O)[O-])c2)c1OC | 11.2 µM [falling, single point] | 11.2 µM [falling, single point]
CCCCCCCCCC(=O)N/N=C(\C)c1cccnc1 | – | 10 µM [rising, single point]
Fc1ccc(Nc2ccnc(Nc3ccc(F)cc3)n2)cc1 | 15.8 µM [rising, single point] | 22.4 µM [rising, single point]
CCc1nn(C(C)C(=O)NCCN2CCN(c3cccc(C)c3C)CC2)c(=O)c2cc3occc3n12 (configuration not stated) | – | 14.1 µM [rising, single point]
COc1cccc(/C=N/c2sc(Cc3ccccc3)c(C)c2C(N)=O)c1O | – | 35.5 µM [rising, single point]
O=C(CC12CC3CC(CC(C3)C1)C2)NC(=S)Nc1ccc(CN2CCOCC2)cc1 | 35.5 µM [rising, single point] | 31.6 µM [rising, single point]
O=C(NC(=S)Nc1nc2ccccc2s1)c1cccs1 | – | 0.00891 µM [rising, full curve, poor fit]
Cn1cc(CC(=O)N2CCN(c3ccc(Cl)cc3)CC2)c2ccccc21 | – | 35.5 µM [rising, single point]
CCc1ccccc1NC(=O)/C(C#N)=C/c1ccc(Sc2ccccc2)o1 | 20 µM [rising, partial curve, poor fit] | –
O=C(NCc1ccc(Cl)cc1)c1ccc(CSCc2cccc(Cl)c2)o1 | 10 µM [rising, partial curve] | 20 µM [rising, single point]
Fc1ccc(C2CC(c3cccs3)=NN2c2ccccc2)cc1 (configuration not stated) | – | 7.94 µM [rising, partial curve, poor fit]
Cc1ccc(-c2nc(-c3ccc(Cl)cc3)sc2CC(=O)O)c(C)c1 | 7.08 µM [rising, full curve, poor fit] | –
COCCNC(=O)C(=O)N/N=C/c1cccs1 | – | 11.2 µM [falling, partial curve, poor fit]
CC(C)Cn1c(N)c(C(=O)COC(=O)c2ccccc2F)c(=O)n(C)c1=O | – | 4.47 µM [rising, full curve, poor fit]
O=C(/C=C/c1ccco1)Nc1ccc(Oc2ccc(Cl)cc2)cc1 | 3.98 µM [falling, single point] | 0.0316 µM [falling, single point]
COc1ccccc1CNc1cc(-c2ccccc2C)ncn1 | 6.31 µM [falling, partial curve] | 8.91 µM [falling, partial curve, poor fit]
COc1ccc(NC(=O)c2ccc3ccccc3c2)cc1NS(=O)(=O)c1ccc(F)cc1 | – | 14.1 µM [rising, single point]
CC(=O)N1CCN(c2ccccc2NC(=O)c2ccc(C#N)cc2F)CC1 | – | 0.158 µM [rising, full curve, poor fit]
Cc1oc2cc(O)cc(O)c2c(=O)c1-c1ccc2c(c1)OCCCO2 | – | 31.6 µM [rising, single point]
Cc1ccc(NC(=O)C(c2ccc(Cl)cc2)N2CCCCC2)cc1 (configuration not stated) | 12.6 µM [falling, single point] | –
CCOc1ccc(C(=O)N[C@H](C(=O)Nc2cccc(S(=O)(=O)N3CCCCC3)c2)C(C)C)cc1 | 11.2 µM [falling, partial curve] | –
COc1cccc(Nc2ncc3nc(C)c(=O)n(CCc4ccccc4)c3n2)c1 | – | 35.5 µM [falling, single point]
COc1ccc(NS(=O)(=O)c2ccc(-n3nnc4ccccc43)c([N+](=O)[O-])c2)cc1 | 35.5 µM [rising, single point] | 25.1 µM [rising, single point]
Fc1cccc2sc(Nc3nnc(-c4ccco4)o3)nc12 | – | 7.08 µM [rising, partial curve]
CCCCCCCCCCCC(=O)OCC(O)CO (configuration not stated) | – | 17.8 µM [falling, single point]
COc1cc(C(=O)Nc2ccc(O)cc2C(=O)O)ccc1OC(C)=O | 0.794 µM [falling, single point] | –
Clc1ccccc1Cc1noc(CN2CCCCC2CCc2ccccn2)n1 (configuration not stated) | 10 µM [falling, partial curve] | 10 µM [falling, partial curve, poor fit]

Part of the list above in order of count of non-hydrogen atoms, ascending.
SMILES | AC50 [1] | AC50 [2]
COc1cc(C(=O)Nc2ccc(O)cc2C(=O)O)ccc1OC(C)=O | 0.794 µM [falling, single point] | –
O=C(NCc1ccc(Cl)cc1)c1ccc(CSCc2cccc(Cl)c2)o1 | 10 µM [rising, partial curve] | 20 µM [rising, single point]
COc1ccc(NS(=O)(=O)c2ccc(-n3nnc4ccccc43)c([N+](=O)[O-])c2)cc1 | 35.5 µM [rising, single point] | 25.1 µM [rising, single point]
